US20160068592A1 (SEOUL NATIONAL UNIVERSITY R AND DB FOUNDATION, published 2016)
Results are given in words; binding and its absence hold for the method and conditions named. Some binding calls cover weakened binding; strength is not graded here.

The chains behind the UniProt entries cited, without tags or fusion partners. Where a name states a change or a piece, a line headed by the entry shows the natural chain unless it says otherwise.
UniProt P01031: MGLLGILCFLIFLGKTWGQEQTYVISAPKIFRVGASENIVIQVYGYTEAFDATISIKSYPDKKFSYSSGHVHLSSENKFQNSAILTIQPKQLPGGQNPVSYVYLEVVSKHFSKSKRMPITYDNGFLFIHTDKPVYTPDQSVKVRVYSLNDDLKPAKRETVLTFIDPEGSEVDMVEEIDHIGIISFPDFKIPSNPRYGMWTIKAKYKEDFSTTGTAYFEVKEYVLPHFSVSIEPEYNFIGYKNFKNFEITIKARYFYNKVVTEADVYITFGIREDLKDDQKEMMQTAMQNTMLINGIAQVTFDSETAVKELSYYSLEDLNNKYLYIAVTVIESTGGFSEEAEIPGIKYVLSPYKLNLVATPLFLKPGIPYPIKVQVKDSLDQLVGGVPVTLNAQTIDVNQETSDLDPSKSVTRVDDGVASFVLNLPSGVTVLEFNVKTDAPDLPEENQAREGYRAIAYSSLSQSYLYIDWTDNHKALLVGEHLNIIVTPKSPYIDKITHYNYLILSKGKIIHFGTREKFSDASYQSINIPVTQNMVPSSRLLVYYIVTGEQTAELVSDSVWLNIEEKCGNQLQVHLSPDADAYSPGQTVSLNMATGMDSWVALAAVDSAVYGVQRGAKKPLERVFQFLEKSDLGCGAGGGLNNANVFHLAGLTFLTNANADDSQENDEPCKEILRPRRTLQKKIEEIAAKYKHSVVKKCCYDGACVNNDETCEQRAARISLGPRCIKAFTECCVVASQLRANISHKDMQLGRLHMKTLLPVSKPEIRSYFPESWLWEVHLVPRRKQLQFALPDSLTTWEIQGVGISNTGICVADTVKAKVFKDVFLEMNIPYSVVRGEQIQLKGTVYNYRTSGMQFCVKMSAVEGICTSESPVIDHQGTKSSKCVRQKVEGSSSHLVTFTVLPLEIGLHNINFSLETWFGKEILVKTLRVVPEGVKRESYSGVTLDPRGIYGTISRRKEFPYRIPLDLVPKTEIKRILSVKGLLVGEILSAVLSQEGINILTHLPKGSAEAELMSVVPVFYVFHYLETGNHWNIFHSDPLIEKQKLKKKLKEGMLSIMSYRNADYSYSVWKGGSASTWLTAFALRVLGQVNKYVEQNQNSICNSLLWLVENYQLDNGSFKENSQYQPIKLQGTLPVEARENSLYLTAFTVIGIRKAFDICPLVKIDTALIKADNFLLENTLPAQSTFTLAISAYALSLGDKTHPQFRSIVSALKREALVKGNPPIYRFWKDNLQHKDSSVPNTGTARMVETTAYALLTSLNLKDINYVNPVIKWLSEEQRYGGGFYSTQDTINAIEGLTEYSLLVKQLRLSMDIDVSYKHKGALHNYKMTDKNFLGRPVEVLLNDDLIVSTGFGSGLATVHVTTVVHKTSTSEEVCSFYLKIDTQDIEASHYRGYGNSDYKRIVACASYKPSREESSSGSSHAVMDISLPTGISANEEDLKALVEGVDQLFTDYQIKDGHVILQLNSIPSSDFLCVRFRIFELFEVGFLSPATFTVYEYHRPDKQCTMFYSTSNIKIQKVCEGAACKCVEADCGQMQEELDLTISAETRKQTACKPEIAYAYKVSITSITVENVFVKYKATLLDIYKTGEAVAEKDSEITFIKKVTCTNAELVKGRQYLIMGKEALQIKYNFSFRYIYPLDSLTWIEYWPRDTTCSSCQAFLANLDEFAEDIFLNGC

Key:
[1] = molecular target: MG1-4 Fc fusion protein (human) (UniProt P01031); assay: immunoblot (FIG. 11 legend)
[2] = molecular target: MG1-5 Fc fusion protein (human) (UniProt P01031); assay: immunoblot (FIG. 11 legend)
[3] = molecular target: MG1-4 Fc fusion protein (human) (UniProt P01031); assay: immunoblot of serial deletion mutants of the beta chain as Fc fusion proteins
[4] = molecular target: MG1-5 Fc fusion protein (human) (UniProt P01031); assay: as above

Measured: binding

B1: HRA-06-H2-1 (antibody, human IgG2, kappa, V domains shown)
VH: EVQLVESGGGLVQPGGSLRLSCAASGFSFSGRYWIQWVRQAPGKGLEWVASVWPGITGDTNYANWAKGRFTISRDDSKNTLYLQMNSLRAEDTAVYYCAREPVAWGGGLDLWGQGTLVTVSS
VL: DIQMTQSPSSLSASVGDRVTITCQASQSINNQLSWYQQKPGKAPKLLIYYASTLASGVPSRFSGSGSGTDFTLTISSLQPEDFATYYCQGSYYSGGWDYGFGQGTKVEIKR
notes: also called anti-complement C5 antibody HRA-06-H2-1; C5 Antibody (HRA-06-H2-1)
binds: all assays above
